Results reported in PMC5833640.
No constants are given. Whether binding was seen depends on the method and setting. Binding seen in cells or lysates may run through a third protein. Some binding calls cover weakened binding; strength is not graded here.

The chains behind the UniProt entries cited, without tags or fusion partners.
UniProt Q8IUC6: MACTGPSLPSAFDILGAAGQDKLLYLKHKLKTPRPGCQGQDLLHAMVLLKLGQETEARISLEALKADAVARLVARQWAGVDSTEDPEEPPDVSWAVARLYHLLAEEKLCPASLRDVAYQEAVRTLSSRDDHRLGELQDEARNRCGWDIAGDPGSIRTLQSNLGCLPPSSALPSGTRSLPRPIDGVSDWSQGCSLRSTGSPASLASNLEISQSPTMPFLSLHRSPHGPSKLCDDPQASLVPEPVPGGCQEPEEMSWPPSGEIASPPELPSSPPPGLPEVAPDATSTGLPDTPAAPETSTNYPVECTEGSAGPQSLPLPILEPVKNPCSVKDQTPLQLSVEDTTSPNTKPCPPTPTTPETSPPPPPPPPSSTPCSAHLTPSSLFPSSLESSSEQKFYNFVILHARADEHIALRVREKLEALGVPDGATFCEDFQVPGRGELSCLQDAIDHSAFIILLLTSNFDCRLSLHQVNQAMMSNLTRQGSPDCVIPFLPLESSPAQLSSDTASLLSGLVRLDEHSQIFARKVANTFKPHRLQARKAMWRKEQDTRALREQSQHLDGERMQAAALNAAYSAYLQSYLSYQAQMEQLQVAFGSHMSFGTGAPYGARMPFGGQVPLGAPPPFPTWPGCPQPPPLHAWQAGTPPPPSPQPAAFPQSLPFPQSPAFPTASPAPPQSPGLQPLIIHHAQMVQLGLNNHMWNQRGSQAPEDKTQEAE
UniProt Q13546: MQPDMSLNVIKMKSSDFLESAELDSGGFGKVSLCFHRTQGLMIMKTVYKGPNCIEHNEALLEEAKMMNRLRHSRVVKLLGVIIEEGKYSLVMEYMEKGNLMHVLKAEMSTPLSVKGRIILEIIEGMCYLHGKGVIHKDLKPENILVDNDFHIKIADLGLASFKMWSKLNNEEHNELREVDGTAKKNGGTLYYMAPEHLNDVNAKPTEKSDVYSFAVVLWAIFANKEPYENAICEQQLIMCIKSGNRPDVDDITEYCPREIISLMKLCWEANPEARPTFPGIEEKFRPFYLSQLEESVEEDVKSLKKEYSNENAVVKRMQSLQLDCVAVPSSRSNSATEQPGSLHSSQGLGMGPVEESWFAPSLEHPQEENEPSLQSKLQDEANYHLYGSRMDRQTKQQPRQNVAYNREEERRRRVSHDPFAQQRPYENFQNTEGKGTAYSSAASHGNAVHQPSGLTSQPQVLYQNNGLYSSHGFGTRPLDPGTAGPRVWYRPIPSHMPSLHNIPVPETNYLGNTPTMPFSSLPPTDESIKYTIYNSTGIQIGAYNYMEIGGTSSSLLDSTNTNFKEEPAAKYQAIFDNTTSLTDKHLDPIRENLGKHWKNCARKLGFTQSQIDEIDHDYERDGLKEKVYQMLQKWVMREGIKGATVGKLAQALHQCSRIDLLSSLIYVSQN

Biological target: TRIF (Toll-IL-1 receptor-domain-containing-adaptor-inducing interferon-beta factor) (human (endogenous in HeLa)) (UniProt Q8IUC6)
Test: co-IP; anti-TRIF immuno-precipitation from lysates of control and poly I:C (5 µg/ml)-transfected HeLa cells; western blot

binding: binds
Substance: receptor-interacting serine/threonine-protein kinase 1 (RIPK1), full-length (from UniProt Q13546 1-671)
